From PubChem BioAssay AID1671190 (National Center for Advancing Translational Sciences (NCATS), 2021)
In all, about 580,000 compounds went through this assay and about 6,100 (1.1%) were called active. Inconclusive means that the source gave no clear call. Such entries were picked first, then a sample of the others. Calls come from the whole dose curve; as a rule, active = well fitted inhibition curve with a large enough effect; inconclusive = small, poorly fitted or top-dose-only effect, or another doubt; inactive = no such curve, though single readings can be large or run the other way. Where the call is inconclusive, the potency comes from a doubtful curve fit.

Amino acid sequences for entries named in this document (tags omitted). A change or cut given only in a name is not applied to a line headed by its entry.
UniProt P18054: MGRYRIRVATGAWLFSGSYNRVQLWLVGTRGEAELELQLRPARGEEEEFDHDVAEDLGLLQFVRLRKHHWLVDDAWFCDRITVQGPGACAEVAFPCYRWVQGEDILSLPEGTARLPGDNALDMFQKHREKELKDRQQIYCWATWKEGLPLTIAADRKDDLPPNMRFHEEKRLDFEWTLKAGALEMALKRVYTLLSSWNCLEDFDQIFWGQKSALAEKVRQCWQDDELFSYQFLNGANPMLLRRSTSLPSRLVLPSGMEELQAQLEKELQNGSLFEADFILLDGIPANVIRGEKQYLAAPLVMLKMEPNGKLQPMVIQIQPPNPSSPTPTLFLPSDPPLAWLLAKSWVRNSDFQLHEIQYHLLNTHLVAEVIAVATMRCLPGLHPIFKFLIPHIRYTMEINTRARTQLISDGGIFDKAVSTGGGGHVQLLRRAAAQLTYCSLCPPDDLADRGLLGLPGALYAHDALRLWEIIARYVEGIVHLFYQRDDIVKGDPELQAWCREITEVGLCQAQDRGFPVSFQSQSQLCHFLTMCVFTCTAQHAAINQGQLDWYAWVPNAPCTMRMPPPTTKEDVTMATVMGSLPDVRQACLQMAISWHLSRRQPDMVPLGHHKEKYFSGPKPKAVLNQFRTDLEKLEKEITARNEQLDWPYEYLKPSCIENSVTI

target: Polyunsaturated fatty acid lipoxygenase ALOX12 (Homo sapiens) (UniProt P18054); test: Primary qHTS assay for inhibitors of human arachidonate 12S-lipoxygenase (ALOX12): Round 2; conditions: purified 12hLO, xylenol orange hydroperoxide absorbance; activity change, negative = inhibition: at 108 µM (top of the series) unless noted
Procedure, shortened: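 Hydroperoxide product was detected by ferrous iron/xylenol orange as the 573 to 405 nm absorbance ratio. Arachidonic acid at 40 uM (final) was turned over for 30 min at room temperature by 150 nM human 12hLO, pH 7.0 Hepes buffer, after 15 min compound preincubation.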
% is set by controls: 0 for no effect and ±100 for the full control effect; potency is the fitted concentration of half-maximal effect.

SMILES | activity change, negative = inhibition | Potency
CCc1cc(N2CCN(C)C(C(=O)O)C2)nc(N2CCOCC2)n1 (stereo not given) | inactive: 3.5% | 
CC1C/C(=C\c2ccccc2[N+](=O)[O-])c2nc3ccccc3c(C(=O)O)c2C1 (stereo not given) |  | inconclusive: 31.6 µM [inhibitor, partial curve]
CCc1ccc(S(=O)(=O)c2cn(CC(=O)Nc3ccccc3C)c3ccc(F)cc3c2=O)cc1 | inactive: 8.83% | 
CCNC(=O)COC(=O)c1cc(=O)[nH]c2ccccc12 | inactive: -18% | 
c1nc(N2CCCC2)c2[nH]cnc2n1 |  | inconclusive: 3.16 µM [inhibitor, full curve, poor fit]
CSc1ccccc1C(=O)NC(C)c1ccc(-n2ccnc2)cc1 (stereo not given) |  | inconclusive: 50.1 µM [inhibitor, partial curve, poor fit]
CCN(CC)C(=O)C[C@@H]1c2nc(NC(=O)c3ccc(F)cc3)sc2C[C@@H]2[C@](C)(CO)[C@H](O)CC[C@]21C |  | inconclusive: 39.8 µM [inhibitor, partial curve]
O=C(c1ccc(Cl)cc1)N1CCCOC1 |  | inconclusive: 7.08 µM [inhibitor, partial curve, poor fit]
CC1CC(C)CN(S(=O)(=O)c2cccc(C(=O)N3CCN(c4ccc(F)cc4)CC3)c2)C1 (stereo not given) | inactive: 0.141% | 
COc1ccc(C2C(C#N)=C(SCC(=O)c3ccccc3)NC3=C2C(=O)CC(C)(C)C3)cc1OC (stereo not given) |  | inconclusive: 25.1 µM [inhibitor, single point]
O=C(CC1C(=O)NCCN1Cc1ccccc1C(F)(F)F)NC1CCC1 (stereo not given) | inactive: 5.9% | 
Nc1nc(N)c2sc3nc4c(cc3c2n1)CCC4 |  | inconclusive: 4.47 µM [inhibitor, full curve, poor fit]
Cc1ccccc1CCC1CCCN(S(=O)(=O)c2cccnc2)C1 (stereo not given) | inactive: 33% | 
CCC(C)(C(=O)NC1CCCC1)N(C(=O)c1ccccn1)c1ccc(C)cc1 (stereo not given) |  | inconclusive: 11.2 µM [inhibitor, partial curve, poor fit]
CCCOc1ccc(NC(=O)CC2C(=O)N(c3ccc(C)cc3)C(=O)N2C2CCCC2)cc1 (stereo not given) |  | inconclusive: 50.1 µM [inhibitor, full curve, poor fit]
COC(=O)C1=C(C)N(c2ccc3c(c2)OCO3)C(=O)NC1c1cc(Br)ccc1OC (stereo not given) |  | inconclusive: 31.6 µM [inhibitor, partial curve, poor fit]
O=c1c(-c2cc(F)cc(F)c2)nc2cnc(N3CCNCC3)nc2n1C1CC1 |  | inconclusive: 79.4 µM [inhibitor, partial curve, poor fit]
CCSc1ncc(Cl)c(C(=O)N(Cc2ccccc2)Cc2ccco2)n1 | inactive: -8.73% | 
Cc1ccc(S(=O)(=O)NC[C@H]2OC[C@@H](NCC(C)(C)C)[C@@H]2O)cc1 |  | inconclusive: 112 µM [inhibitor, partial curve, poor fit]
CCOC(=O)c1c(C)n(C)c2ccc(OCC(O)CN3CCN(C)CC3)cc12 (stereo not given) | inactive: -0.0465% | 
COC(=O)[C@]12CCCCC=C1N(Cc1ccco1)C(=O)[C@H](CC(=O)NCc1cccc3ccccc13)C2 |  | inconclusive: 12.6 µM [inhibitor, partial curve, poor fit]
CCO[C@H]1C[C@@H](O)C12CCN(C(=O)c1cc(=O)[nH]c(=O)[nH]1)CC2 |  | inconclusive: 6.31 µM [inhibitor, full curve, poor fit]

SMILES | activity change, negative = inhibition | Potency
CC(=O)c1ccc(N2CCN(C(=O)c3cc4ccc5cccnc5c4[nH]3)CC2)cc1 | inactive: -5.62% | 
Cc1ccc(C2CC(C(F)(F)F)n3nc(C(=O)NCc4c(C)nn(C)c4C)c(Cl)c3N2)cc1 (stereo not given) |  | inconclusive: 2.51 µM [inhibitor, full curve, poor fit]
CSc1nc2ncnc(N)c2[nH]1 |  | inconclusive: 28.2 µM [inhibitor, partial curve, poor fit]
O=C(O)CCSc1nc2ccccc2s1 | inactive: 4.6% | 
O=C(CCC(=O)c1ccccc1)Nc1ccc(F)c(Cl)c1 |  | inconclusive: 112 µM [inhibitor, single point]
COc1ccc(OC)c(/C=C(\C#N)c2nc3ccccc3c(=O)[nH]2)c1 |  | inconclusive: 50.1 µM [inhibitor, partial curve, poor fit]
CC(C(=O)Nc1ccc(S(=O)(=O)N2CCCC2)cc1)N1CCN(c2ccccc2O)CC1 (stereo not given) | inactive: 15.8% | 
O=c1ccc(S(=O)(=O)N2CCCC2)cn1Cc1ccc(Cl)cc1Cl |  | inconclusive: 89.1 µM [inhibitor, single point]
Cc1cccc(CNC(=O)c2ccco2)c1 |  | inconclusive: 100 µM [inhibitor, partial curve, poor fit]
O=C(COC(=O)c1ccc(Oc2ccccc2)cc1)Nc1nnc(-c2ccccc2)o1 |  | inconclusive: 15.8 µM [inhibitor, partial curve, poor fit]
O=C(CCC(=O)c1ccc2c(c1)OCCO2)OCc1ccc(Cl)cc1Cl |  | inconclusive: 35.5 µM [inhibitor, partial curve, poor fit]
Cc1cccc(NC(=O)C2CCCN(S(=O)(=O)c3ccc4c(c3)oc(=O)n4C)C2)c1 (stereo not given) |  | inconclusive: 89.1 µM [inhibitor, partial curve, poor fit]
COc1ccc(Nc2nc(C)c(C(C)=O)s2)cc1 |  | active: 44.7 µM
CN(C)S(=O)(=O)c1cccc(C(=O)Nc2ccc(N3CCOCC3)cc2)c1 |  | inconclusive: 4.47 µM [inhibitor, full curve, poor fit]
Cc1ccc(C)c(S(=O)(=O)NCCc2csc(-c3ccc(Cl)cc3)n2)c1 |  | inconclusive: 89.1 µM [inhibitor, partial curve, poor fit]
O=C(CC(Nc1ccccc1Cl)C(=O)O)c1ccccc1 (stereo not given) | inactive: 5.33% | 
COc1ccc(C2Cn3nnc(C(=O)N4CCC(C(=O)NC5CC5)CC4)c3CO2)cc1 (stereo not given) | inactive: 2.95% | 
CC[C@]12c3[nH]c4cc(-c5ccco5)ccc4c3CCN1C(=O)[C@@H](CC(=O)NCc1ccc(OC)c(OC)c1)C[C@@H]2C(=O)N1CCN(C(=O)C2CC2)CC1 |  | inconclusive: 100 µM [inhibitor, single point]
Cc1ccc(S(=O)(=O)NCC(=O)NCC(=O)NCCc2ccc(Cl)cc2)cc1C |  | inconclusive: 79.4 µM [inhibitor, single point]
COc1ccc(CCNC(=O)c2c(C)noc2-c2ccc3c(c2)OCO3)cc1OC | inactive: 9% | 
Cc1cc(NC(=O)CSc2ccc3nnc(-c4cccc(F)c4)n3n2)no1 |  | active: 44.7 µM
CC(=O)Nc1nonc1NC(=O)CSC1=NCCS1 |  | inconclusive: 6.31 µM [inhibitor, full curve, poor fit]

SMILES | activity change, negative = inhibition | Potency
CCN1CCN(c2ccc(NC(=O)c3ccc4c(c3)OCCO4)cc2C)CC1 |  | inconclusive: 100 µM [inhibitor, partial curve, poor fit]
COCc1nn2c(c1-c1ccccc1)NC(=O)CC2C(=O)Nc1ccccc1OC (stereo not given) | inactive: -2.86% | 
O=S(=O)(c1ccc2c(c1)OCCO2)c1nc(-c2ccccc2F)oc1N1CCOCC1 |  | inconclusive: 31.6 µM [inhibitor, full curve, poor fit]
CCOC(=O)c1ccc2c(c1)[C@@H]1C=CC[C@@H]1[C@H](c1cccc(OC)c1OC)N2 |  | inconclusive: 112 µM [inhibitor, single point]
NC(=S)Nc1cccc2cn[nH]c12 |  | inconclusive: 50.1 µM [inhibitor, partial curve, poor fit]
C/C(=N\Nc1nc(N2CCOCC2)nc(N2CCOCC2)n1)c1cccc([N+](=O)[O-])c1 | inactive: 7.2% | 
CCN1CCN(CC(=O)Nc2cc(S(=O)(=O)N3CCCCC3)ccc2Cl)CC1 |  | inconclusive: 0.794 µM [inhibitor, full curve, poor fit]
CCc1ccc(NC(=S)NC(=O)CC(C)C)cc1 |  | inconclusive: 1.58 µM [inhibitor, full curve]
Cc1ccc(S(=O)(=O)/N=C2\C=C(NS(=O)(=O)c3ccc(C)cc3)C(=O)c3ccccc32)cc1 |  | active: 15.8 µM
Cc1cc(C)c2sc(N(Cc3cccnc3)C(=O)CCOc3ccccc3)nc2c1 |  | inconclusive: 63.1 µM [inhibitor, partial curve, poor fit]
CCOC(=O)Cc1csc(NC(=O)CSc2nc(=O)[nH]c3c2CCC3)n1 | inactive: -4.74% | 
Cc1ccccc1-c1nc(C#N)c(NCc2ccccc2Cl)o1 |  | inconclusive: 28.2 µM [inhibitor, partial curve, poor fit]
O=C(OCc1cnc(Cl)s1)c1cccc(Cl)c1Cl |  | inconclusive: 39.8 µM [inhibitor, partial curve, poor fit]
O=C(CN1C(=O)NC2(CCCCCCC2)C1=O)Nc1ccc(Cl)cc1 | inactive: -25.2% | 
COc1ccc(CNC(=O)C(C)C)cc1 | inactive: -42.9% | 
Cc1nccn1CCN(C)Cc1cc2n(n1)CCNC2 |  | inconclusive: 7.08 µM [inhibitor, full curve, poor fit]
CC1=C(C(=O)Nc2ccccc2)C(c2ccncc2)C(C#N)=C(SCC(=O)Nc2ccccc2)N1 (stereo not given) |  | inconclusive: 112 µM [inhibitor, single point]
O=C(O)CCNC(=O)/C(=C\c1ccco1)NC(=O)c1ccco1 |  | inconclusive: 2.51 µM [inhibitor, full curve, poor fit]
N#CC(c1ccccc1)C(CC(=NO)c1ccccc1)c1ccccc1 (stereo not given) |  | inconclusive: 89.1 µM [inhibitor, single point]
O=c1cc(-c2ccccc2)[nH]n1-c1ccc([N+](=O)[O-])cc1 |  | inconclusive: 39.8 µM [inhibitor, partial curve, poor fit]
Cc1noc(C)c1CSc1nc2cc(S(=O)(=O)N3CCOCC3)ccc2o1 |  | inconclusive: 25.1 µM [inhibitor, partial curve, poor fit]

Part of the list above, reformatted.
SMILES	activity change, negative = inhibition	Potency
O=C(CCC(=O)c1ccccc1)Nc1ccc(F)c(Cl)c1		inconclusive: 112 µM [inhibitor, single point]
O=C(CC(Nc1ccccc1Cl)C(=O)O)c1ccccc1 (stereo not given)	inactive: 5.33%	
O=C(CN1C(=O)NC2(CCCCCCC2)C1=O)Nc1ccc(Cl)cc1	inactive: -25.2%	
